{
  "sequences": {"note": "The chains behind the UniProt entries cited, without tags or fusion partners.", "UniProt Q04888": "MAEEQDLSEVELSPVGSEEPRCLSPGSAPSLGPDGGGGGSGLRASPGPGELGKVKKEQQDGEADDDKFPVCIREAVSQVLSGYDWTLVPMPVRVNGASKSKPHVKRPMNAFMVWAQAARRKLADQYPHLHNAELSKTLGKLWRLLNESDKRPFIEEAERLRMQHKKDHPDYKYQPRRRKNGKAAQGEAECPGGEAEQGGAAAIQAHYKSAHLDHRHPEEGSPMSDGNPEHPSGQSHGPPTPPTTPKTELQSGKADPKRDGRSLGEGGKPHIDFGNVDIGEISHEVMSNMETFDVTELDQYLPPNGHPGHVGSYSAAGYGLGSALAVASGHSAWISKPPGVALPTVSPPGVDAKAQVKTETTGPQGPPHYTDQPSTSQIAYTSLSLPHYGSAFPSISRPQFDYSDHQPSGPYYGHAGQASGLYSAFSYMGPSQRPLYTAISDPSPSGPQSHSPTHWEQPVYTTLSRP"},
  "source": "paper PMC7560653",
  "test_in_all_cases": "co-IP; non-denaturing co-IP with WT or 3KR Myc-Olig2 as bait; co-expressed Flag-Olig2, Olig1, Nkx2.2 or Sox10 as prey (Fig. S5F-I); lysis buffer 20 mM Tris-HCl pH 7.5, 150 mM NaCl, 1% Triton X-100, 0.1% SDS, 2 mM EDTA, 10% glycerol",
  "key": {"[1]": {"biological_target": "T1, Myc-Olig2 3KR (K27/76/112R) (mouse) (UniProt Q9EQW6)", "T1 sequence": "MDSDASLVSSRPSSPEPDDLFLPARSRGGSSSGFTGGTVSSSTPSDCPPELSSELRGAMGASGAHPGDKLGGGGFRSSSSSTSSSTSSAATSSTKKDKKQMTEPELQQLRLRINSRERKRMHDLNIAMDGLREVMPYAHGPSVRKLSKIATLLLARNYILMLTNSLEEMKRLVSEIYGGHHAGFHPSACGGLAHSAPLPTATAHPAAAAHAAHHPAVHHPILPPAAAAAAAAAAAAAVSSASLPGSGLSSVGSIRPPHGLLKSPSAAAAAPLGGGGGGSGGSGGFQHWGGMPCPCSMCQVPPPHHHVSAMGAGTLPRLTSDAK"}, "[2]": {"biological_target": "T2, Myc-Olig2 (wild type) (mouse) (UniProt Q9EQW6)", "T2 sequence": "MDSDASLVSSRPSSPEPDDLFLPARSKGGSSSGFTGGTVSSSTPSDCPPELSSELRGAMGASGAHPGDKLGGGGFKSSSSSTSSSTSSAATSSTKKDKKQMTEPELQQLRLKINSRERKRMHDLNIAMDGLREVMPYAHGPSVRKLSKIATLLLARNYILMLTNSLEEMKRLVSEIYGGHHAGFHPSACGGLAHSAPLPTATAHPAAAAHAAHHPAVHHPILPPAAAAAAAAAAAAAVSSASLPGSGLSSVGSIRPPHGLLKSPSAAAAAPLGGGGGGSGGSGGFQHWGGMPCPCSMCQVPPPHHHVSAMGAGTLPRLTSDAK"}, "[3]": {"biological_target": "T3, Myc-Olig2 (wild type) (mouse), Q9EQW6", "T3 chain": "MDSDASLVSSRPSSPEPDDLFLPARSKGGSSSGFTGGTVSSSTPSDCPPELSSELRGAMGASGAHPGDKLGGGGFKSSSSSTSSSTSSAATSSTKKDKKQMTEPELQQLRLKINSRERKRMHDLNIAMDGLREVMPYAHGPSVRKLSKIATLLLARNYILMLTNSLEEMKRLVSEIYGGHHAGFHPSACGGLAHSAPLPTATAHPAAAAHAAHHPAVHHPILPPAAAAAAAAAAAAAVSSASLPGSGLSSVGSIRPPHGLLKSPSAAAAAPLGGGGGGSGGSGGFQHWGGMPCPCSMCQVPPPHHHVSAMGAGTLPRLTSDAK", "details": "remark: other sources report otherwise"}},
  "note": "No constants are given. Whether binding was seen depends on the method and setting. In cells and extracts the contact can be indirect. Some binding calls cover weakened binding; strength is not graded here. Where a sequence is shown, tags or fusion partners need not be part of it.",
  "data": [
    {"molecule": "HA-Sox10 (from UniProt Q04888 1-466)", "values": [
      {"measurement": "binding", "setting": "[1]", "value": "binds"},
      {"measurement": "binding", "setting": "[2]", "value": "binds"}
    ]},
    {"molecule": "Flag-Olig2 (wild type), Q9EQW6 1-323 (protein) MDSDASLVSSRPSSPEPDDLFLPARSKGGSSSGFTGGTVSSSTPSDCPPELSSELRGAMGASGAHPGDKLGGGGFKSSSSSTSSSTSSAATSSTKKDKKQMTEPELQQLRLKINSRERKRMHDLNIAMDGLREVMPYAHGPSVRKLSKIATLLLARNYILMLTNSLEEMKRLVSEIYGGHHAGFHPSACGGLAHSAPLPTATAHPAAAAHAAHHPAVHHPILPPAAAAAAAAAAAAAVSSASLPGSGLSSVGSIRPPHGLLKSPSAAAAAPLGGGGGGSGGSGGFQHWGGMPCPCSMCQVPPPHHHVSAMGAGTLPRLTSDAK", "values": [
      {"measurement": "binding", "setting": "[3]", "value": "binds"}
    ]},
    {"molecule": "HA-Olig1 (protein, UniProt Q9JKN5 1-260) MYYAISQARVNAAPATMLRPQRPGDVQLGASLYELVGYRQPPISSSSSSSSSTASLLPKPAREKAEAPLAEPRGPAPESGGARADAKEEQQQQQLRRKINSRERKRMQDLNLAMDALREVILPYSAAHCQGAPGRKLSKIATLLLARNYILLLGSSLQELRRALGDGAGPAAPRLLLAGLPLLAAAPGSVLLAPGAVGPPETLRPTKYLSLALDEPPCGQFSLPAGGAGSPGLCSCAVCKFPHLVPAGLGLAAVQAQFSK", "values": [
      {"measurement": "binding", "setting": "[1]", "value": "binds"},
      {"measurement": "binding", "setting": "[2]", "value": "binds"}
    ]},
    {"molecule": "HA-Nkx2.2 (protein, UniProt P42586 1-273) MSLTNTKTGFSVKDILDLPDTNDEDGSVAEGPEEESEGPEPAKRAGPLGQGALDAVQSLPLKSPFYDSSDNPYTRWLASTEGLQYSLHGLAASAPPQDSSSKSPEPSADESPDNDKETQGGGGDAGKKRKRRVLFSKAQTYELERRFRQQRYLSAPEREHLASLIRLTPTQVKIWFQNHRYKMKRARAEKGMEVTPLPSPRRVAVPVLVRDGKPCHALKAQDLAAATFQAGIPFSAYSAQSLQHMQYNAQYSSASTPQYPTAHPLVQAQQWTW", "values": [
      {"measurement": "binding", "setting": "[1]", "value": "binds"},
      {"measurement": "binding", "setting": "[2]", "value": "binds"}
    ]}
  ]
}
